From PMC7657459, “A second hybrid-binding domain modulates the activity of Drosophila ribonuclease H1”

Legend:
[1] = target: T1, RNase H1 D252N (Drosophila melanogaster) (UniProt A1Z769); assay: BLI; conditions: BLI: 30 mM Tris-HCl pH 8.0, 100 mM KCl, 10% glycerol, 10 mM EDTA, 2 mM DTT, 400 ug/ml BSA, 30 C, recombinant protein
T1 sequence (looked up): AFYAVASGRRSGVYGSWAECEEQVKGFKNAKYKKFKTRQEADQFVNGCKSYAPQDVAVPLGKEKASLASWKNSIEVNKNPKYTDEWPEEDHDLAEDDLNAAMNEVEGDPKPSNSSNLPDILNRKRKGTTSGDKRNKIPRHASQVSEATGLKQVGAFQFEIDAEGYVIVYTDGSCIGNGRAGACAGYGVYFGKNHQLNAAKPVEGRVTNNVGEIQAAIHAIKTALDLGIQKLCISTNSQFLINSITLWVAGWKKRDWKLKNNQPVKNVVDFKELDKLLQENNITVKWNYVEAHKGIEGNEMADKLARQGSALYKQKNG

[2] = target: T2, RNase H1 ΔII/III D252N D252N,del66-141 (Drosophila melanogaster) (UniProt A1Z769); assay: BLI; conditions: BLI: 30 mM Tris-HCl pH 8.0, 100 mM KCl, 10% glycerol, 10 mM EDTA, 2 mM DTT, 400 ug/ml BSA, 30 C, recombinant protein, residues 17-333, protein details: C-terminal 6xHis
T2 sequence (looked up): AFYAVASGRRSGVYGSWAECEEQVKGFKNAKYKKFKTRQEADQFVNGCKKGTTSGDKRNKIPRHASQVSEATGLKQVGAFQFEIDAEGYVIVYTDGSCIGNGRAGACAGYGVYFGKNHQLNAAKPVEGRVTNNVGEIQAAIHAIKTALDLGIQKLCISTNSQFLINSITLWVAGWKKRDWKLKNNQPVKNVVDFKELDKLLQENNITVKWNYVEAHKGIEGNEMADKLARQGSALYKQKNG

[3] = target: T1, RNase H1 D252N (Drosophila melanogaster); assay: EMSA; conditions: supershift at high protein; EMSA: 25 mM Tris-HCl pH 8.0, 25 mM KCl, 1 mM DTT, 10 mM EDTA, 20 ug/ml BSA, room temperature, 30 min; recombinant protein; residues 17-333; protein details: C-terminal 6xHis (+2 vector residues)
[4] = target: T3, RNase H1 ΔI-III D252N (Drosophila melanogaster) (UniProt A1Z769); assay: EMSA; conditions: supershift at high protein; EMSA: 25 mM Tris-HCl pH 8.0, 25 mM KCl, 1 mM DTT, 10 mM EDTA, 20 ug/ml BSA, room temperature, 30 min; recombinant protein; residues 142-333; protein details: C-terminal 6xHis
T3 sequence (looked up): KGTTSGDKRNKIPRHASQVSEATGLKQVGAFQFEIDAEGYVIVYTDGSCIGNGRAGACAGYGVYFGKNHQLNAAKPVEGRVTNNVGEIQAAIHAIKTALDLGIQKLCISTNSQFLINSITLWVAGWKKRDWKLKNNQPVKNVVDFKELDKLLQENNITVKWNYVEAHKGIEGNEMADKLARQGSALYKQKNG

[5] = target: T4, RNase H1 ΔI/II D252N (Drosophila melanogaster) (UniProt A1Z769); assay: EMSA; conditions: supershift at high protein; EMSA: 25 mM Tris-HCl pH 8.0, 25 mM KCl, 1 mM DTT, 10 mM EDTA, 20 ug/ml BSA, room temperature, 30 min; recombinant protein; residues 87-333; protein details: C-terminal 6xHis
T4 sequence (looked up): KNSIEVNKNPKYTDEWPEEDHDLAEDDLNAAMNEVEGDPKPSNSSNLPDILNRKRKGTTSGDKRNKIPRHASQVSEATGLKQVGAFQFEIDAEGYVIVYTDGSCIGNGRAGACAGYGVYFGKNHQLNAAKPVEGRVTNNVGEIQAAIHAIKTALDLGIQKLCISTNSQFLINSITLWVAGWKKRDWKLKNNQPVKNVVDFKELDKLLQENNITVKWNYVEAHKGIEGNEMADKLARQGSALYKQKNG

[6] = target: T2, RNase H1 ΔII/III D252N D252N,del66-141 (Drosophila melanogaster); assay: EMSA; conditions: supershift at high protein; EMSA: 25 mM Tris-HCl pH 8.0, 25 mM KCl, 1 mM DTT, 10 mM EDTA, 20 ug/ml BSA, room temperature, 30 min; recombinant protein; residues 17-333; protein details: C-terminal 6xHis
[7] = target: T3, RNase H1 ΔI-III D252N (Drosophila melanogaster); assay: BLI; conditions: 1:1 model; BLI: 30 mM Tris-HCl pH 8.0, 100 mM KCl, 10% glycerol, 10 mM EDTA, 2 mM DTT, 400 ug/ml BSA, 30 C; recombinant protein; residues 142-333; protein details: C-terminal 6xHis; label: 5' biotin; DNA:RNA hybrid
[8] = target: T4, RNase H1 ΔI/II D252N (Drosophila melanogaster); assay: BLI; conditions: 1:1 model; BLI: 30 mM Tris-HCl pH 8.0, 100 mM KCl, 10% glycerol, 10 mM EDTA, 2 mM DTT, 400 ug/ml BSA, 30 C; recombinant protein; residues 87-333; protein details: C-terminal 6xHis; label: 5' biotin; DNA:RNA hybrid
[9] = target: T5, RNase H1 ΔII-V (Drosophila melanogaster) (UniProt A1Z769); assay: BLI; conditions: 1:1 model; BLI: 30 mM Tris-HCl pH 8.0, 100 mM KCl, 10% glycerol, 10 mM EDTA, 2 mM DTT, 400 ug/ml BSA, 30 C; recombinant protein; residues 17-65; protein details: C-terminal 6xHis; label: 5' biotin; DNA:RNA hybrid
T5 sequence (looked up): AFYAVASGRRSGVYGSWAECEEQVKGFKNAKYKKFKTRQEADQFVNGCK

[10] = target: T6, RNase H1 ΔIII-V (Drosophila melanogaster) (UniProt A1Z769); assay: BLI; conditions: 1:1 model; BLI: 30 mM Tris-HCl pH 8.0, 100 mM KCl, 10% glycerol, 10 mM EDTA, 2 mM DTT, 400 ug/ml BSA, 30 C; recombinant protein; residues 17-87; protein details: C-terminal 6xHis; label: 5' biotin; DNA:RNA hybrid
T6 sequence (looked up): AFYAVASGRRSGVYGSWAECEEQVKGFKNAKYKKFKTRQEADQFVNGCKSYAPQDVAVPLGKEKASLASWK

[11] = target: T7, RNase H1 ΔIV/V (Drosophila melanogaster) (UniProt A1Z769); assay: BLI; conditions: 1:1 model; BLI: 30 mM Tris-HCl pH 8.0, 100 mM KCl, 10% glycerol, 10 mM EDTA, 2 mM DTT, 400 ug/ml BSA, 30 C; recombinant protein; residues 17-142; protein details: C-terminal 6xHis; label: 5' biotin; DNA:RNA hybrid
T7 sequence (looked up): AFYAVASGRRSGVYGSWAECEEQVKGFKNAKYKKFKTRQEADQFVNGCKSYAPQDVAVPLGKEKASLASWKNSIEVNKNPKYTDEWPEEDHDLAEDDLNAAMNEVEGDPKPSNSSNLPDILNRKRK

[12] = target: T8, mtSSB (Drosophila melanogaster) (UniProt P54622); assay: EMSA; conditions: with 1 uM RNase H1 D252N and 30-bp hybrid present; EMSA: 25 mM Tris-HCl pH 8.0, 25 mM KCl, 1 mM DTT, 10 mM EDTA, 20 ug/ml BSA, room temperature, 30 min; recombinant protein; single-stranded DNA
T8 sequence (looked up, limits assumed): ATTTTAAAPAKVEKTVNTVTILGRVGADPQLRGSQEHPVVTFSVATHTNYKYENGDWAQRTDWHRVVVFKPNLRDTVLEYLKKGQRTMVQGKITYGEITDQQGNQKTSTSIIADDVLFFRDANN

AAGUAGGGCACGCUAUAGUUAGUCUUCGCG / CGCGAAGACUAACUAUAGCGUGCCCUACUU [30-bp dsRNA]
Kd ([1]; KD1, 2:1 model, residues 17-333, protein details: C-terminal 6xHis (+2 vector residues), label: 5' biotin on S2 for BLI): 2200 nM
Kd ([1]; KD2, 2:1 model, residues 17-333, protein details: C-terminal 6xHis (+2 vector residues), label: 5' biotin on S2 for BLI): 750 nM
Kd ([2]; KD1, 2:1 model, label: 5' biotin on S2 for BLI): 2100 nM
Kd ([2]; KD2, 2:1 model, label: 5' biotin on S2 for BLI): 940 nM

TGACGGCGGAAGCGACATAGGGATCTGGGGATGAAGCAATCCAACGCTACGCATGTGAAGTACAGCCCTCATGGTCTCTTCTACTGATGA / TCATCAGTAGAAGAGACCATGAGGGCTCCCAAGTAGGGCACGCTATAGTTAGTCTTCGCGTGACAGATCCCTATGTCGCTTCCGCCGTCA / CGCGAAGACUAACUAUAGCGUGCCCUACUU [R-loop 90 nt with 30-nt RNA]
binding result [3]: binds
binding result [4]: binds
binding result [5]: binds
binding result [6]: binds

CGCGAAGACUAACUAUAGCGUGCCCUACUU / AAGTAGGGCACGCTATAGTTAGTCTTCGCG [30-bp RNA/DNA hybrid (BLI)]
Kd ([1]; KD1, 2:1 model, residues 17-333, protein details: C-terminal 6xHis (+2 vector residues), label: 5' biotin, DNA:RNA hybrid): 550 nM
Kd ([1]; KD2, 2:1 model (text: 0.23), residues 17-333, protein details: C-terminal 6xHis (+2 vector residues), label: 5' biotin, DNA:RNA hybrid): 0.22 nM
Kd [7]: 720 nM
Kd [8]: 750 nM
Kd [9]: 140 nM
Kd ([2]; KD1, 2:1 model, label: 5' biotin, DNA:RNA hybrid): 110 nM
Kd ([2]; KD2, 2:1 model, label: 5' biotin, DNA:RNA hybrid): 0.65 nM
Kd [10]: 170 nM
Kd [11]: 370 nM

TCATCAGTAGAAGAGACCATGAGGGCTCCCTGACAGATCCCTATGTCGCTTCCGCCGTCA [60nt_ssDNA]
binding result [12]: binds

AAGTAGGGCACGCTATAGTTAGTCTTCGCG (double strand) [30-bp dsDNA]
Kd ([1]; KD1, 2:1 model, residues 17-333, protein details: C-terminal 6xHis (+2 vector residues), label: 5' biotin on S3 for BLI): 13000 nM
Kd ([1]; KD2, 2:1 model, residues 17-333, protein details: C-terminal 6xHis (+2 vector residues), label: 5' biotin on S3 for BLI): 340 nM
Kd ([2]; KD1, 2:1 model, label: 5' biotin on S3 for BLI): 1900 nM
Kd ([2]; KD2, 2:1 model, label: 5' biotin on S3 for BLI): 120 nM

The exact form of at least one protein or probe is not confirmed. For some of these results: At least one verdict rests on a figure or table, not on a statement of the authors. Protein sequences can lack the tags named with them.
